In the supplement of paper PMC12823440, “Inhibitors supercharge kinase turnover through native proteolytic circuits” (Nature, 2025):
Some of the results follow. Hit calls seldom repeat between salt and free forms of one compound.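 In K562 cells expressing nanoluciferase-fused kinases, luminescence was recorded at 4 h intervals between 2 and 18 h, normalized as percent of control with DMSO at 100% and a positive control at 0%. A significant (2 sigma) signal drop marks a time point as decreased. The authors' rule for a hit is not shown and takes in more than the number of time points.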

Sequences of proteins named here, by UniProt entry; tags and fusion partners are left off. A change or cut given only in a name is not applied to a line headed by its entry.
UniProt P21802, whole entry, looked up: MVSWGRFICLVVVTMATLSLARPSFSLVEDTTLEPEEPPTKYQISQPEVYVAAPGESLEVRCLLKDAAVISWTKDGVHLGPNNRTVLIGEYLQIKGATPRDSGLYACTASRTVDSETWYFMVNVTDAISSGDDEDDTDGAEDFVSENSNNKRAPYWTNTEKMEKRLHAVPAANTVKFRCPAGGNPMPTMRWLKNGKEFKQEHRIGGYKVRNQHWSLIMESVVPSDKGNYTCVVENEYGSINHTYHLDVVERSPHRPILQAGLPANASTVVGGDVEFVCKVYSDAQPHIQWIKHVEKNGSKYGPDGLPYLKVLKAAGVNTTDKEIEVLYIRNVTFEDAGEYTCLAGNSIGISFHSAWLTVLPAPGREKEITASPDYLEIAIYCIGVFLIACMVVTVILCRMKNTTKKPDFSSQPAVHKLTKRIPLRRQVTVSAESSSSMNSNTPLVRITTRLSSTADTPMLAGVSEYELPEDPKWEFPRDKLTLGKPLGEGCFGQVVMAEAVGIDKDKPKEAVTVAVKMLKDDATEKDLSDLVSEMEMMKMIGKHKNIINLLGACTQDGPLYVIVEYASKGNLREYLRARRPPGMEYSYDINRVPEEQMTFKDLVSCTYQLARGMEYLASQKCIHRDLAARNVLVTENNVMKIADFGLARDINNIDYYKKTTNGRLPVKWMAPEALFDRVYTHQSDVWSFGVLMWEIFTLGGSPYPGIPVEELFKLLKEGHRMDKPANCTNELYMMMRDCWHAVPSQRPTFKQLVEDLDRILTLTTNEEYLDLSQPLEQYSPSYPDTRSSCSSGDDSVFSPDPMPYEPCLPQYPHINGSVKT
UniProt P22607, whole entry, looked up: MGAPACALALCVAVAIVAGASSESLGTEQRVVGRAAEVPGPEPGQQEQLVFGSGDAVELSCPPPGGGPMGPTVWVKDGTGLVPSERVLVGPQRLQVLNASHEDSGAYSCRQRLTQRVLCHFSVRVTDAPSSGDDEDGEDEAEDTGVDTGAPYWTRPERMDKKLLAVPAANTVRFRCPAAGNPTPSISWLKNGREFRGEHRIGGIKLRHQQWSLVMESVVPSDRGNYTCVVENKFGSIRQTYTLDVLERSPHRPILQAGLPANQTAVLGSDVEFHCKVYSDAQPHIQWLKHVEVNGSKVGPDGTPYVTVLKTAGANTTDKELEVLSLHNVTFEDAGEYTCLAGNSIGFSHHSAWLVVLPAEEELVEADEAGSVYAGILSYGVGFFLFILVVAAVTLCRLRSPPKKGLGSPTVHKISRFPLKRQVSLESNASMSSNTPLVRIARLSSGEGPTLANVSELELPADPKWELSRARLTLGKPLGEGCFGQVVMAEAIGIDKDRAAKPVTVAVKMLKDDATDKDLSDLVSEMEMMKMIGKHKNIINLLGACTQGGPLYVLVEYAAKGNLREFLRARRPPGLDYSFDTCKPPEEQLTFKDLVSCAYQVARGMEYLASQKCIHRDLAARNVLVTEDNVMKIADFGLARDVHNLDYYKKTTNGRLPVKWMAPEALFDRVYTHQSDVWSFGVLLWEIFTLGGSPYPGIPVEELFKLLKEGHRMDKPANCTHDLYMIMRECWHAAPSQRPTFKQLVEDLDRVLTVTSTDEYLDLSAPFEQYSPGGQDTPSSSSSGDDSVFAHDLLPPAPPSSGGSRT
UniProt P06241, whole entry, looked up: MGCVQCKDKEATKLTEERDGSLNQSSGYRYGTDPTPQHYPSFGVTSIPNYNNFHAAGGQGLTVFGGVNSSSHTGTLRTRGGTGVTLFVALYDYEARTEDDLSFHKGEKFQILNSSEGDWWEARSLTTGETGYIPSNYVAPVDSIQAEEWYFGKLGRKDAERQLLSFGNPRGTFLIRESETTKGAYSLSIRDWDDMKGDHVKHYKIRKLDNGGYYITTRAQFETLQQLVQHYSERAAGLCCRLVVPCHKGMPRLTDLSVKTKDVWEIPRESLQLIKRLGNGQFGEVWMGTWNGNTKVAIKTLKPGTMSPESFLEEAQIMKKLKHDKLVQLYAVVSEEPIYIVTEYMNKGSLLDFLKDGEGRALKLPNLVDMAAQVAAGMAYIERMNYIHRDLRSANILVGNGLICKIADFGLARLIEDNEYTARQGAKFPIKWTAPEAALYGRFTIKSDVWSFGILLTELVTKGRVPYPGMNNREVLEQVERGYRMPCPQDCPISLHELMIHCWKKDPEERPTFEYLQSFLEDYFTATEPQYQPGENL
UniProt P49840: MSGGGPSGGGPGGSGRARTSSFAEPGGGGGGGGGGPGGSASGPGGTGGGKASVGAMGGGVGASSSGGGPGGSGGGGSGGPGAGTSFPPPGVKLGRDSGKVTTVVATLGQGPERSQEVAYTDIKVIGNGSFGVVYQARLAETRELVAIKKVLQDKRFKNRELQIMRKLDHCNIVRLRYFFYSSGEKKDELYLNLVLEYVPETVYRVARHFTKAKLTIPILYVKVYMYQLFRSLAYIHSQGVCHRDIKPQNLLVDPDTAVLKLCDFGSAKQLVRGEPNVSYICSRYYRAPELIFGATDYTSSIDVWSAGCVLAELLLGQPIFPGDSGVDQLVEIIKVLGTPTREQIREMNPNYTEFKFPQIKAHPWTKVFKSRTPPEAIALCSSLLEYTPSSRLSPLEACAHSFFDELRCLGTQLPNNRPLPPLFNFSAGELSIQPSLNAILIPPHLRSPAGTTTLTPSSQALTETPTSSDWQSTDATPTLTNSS
UniProt Q9Y616: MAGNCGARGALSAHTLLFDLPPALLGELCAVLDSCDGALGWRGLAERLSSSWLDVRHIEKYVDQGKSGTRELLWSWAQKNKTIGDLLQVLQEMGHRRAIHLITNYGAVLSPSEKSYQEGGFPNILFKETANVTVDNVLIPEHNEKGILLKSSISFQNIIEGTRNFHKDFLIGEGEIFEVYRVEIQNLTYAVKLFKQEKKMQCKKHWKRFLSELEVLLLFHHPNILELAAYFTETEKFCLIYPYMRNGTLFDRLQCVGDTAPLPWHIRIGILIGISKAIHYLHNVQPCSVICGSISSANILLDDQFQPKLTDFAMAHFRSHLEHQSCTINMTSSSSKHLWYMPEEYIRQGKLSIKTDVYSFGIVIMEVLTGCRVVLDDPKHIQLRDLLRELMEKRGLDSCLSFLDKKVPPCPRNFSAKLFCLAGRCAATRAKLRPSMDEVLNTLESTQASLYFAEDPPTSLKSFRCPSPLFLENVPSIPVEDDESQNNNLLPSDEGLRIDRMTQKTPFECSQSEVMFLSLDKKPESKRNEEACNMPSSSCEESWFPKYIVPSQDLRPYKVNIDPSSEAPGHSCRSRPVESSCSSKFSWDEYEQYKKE
UniProt P23458: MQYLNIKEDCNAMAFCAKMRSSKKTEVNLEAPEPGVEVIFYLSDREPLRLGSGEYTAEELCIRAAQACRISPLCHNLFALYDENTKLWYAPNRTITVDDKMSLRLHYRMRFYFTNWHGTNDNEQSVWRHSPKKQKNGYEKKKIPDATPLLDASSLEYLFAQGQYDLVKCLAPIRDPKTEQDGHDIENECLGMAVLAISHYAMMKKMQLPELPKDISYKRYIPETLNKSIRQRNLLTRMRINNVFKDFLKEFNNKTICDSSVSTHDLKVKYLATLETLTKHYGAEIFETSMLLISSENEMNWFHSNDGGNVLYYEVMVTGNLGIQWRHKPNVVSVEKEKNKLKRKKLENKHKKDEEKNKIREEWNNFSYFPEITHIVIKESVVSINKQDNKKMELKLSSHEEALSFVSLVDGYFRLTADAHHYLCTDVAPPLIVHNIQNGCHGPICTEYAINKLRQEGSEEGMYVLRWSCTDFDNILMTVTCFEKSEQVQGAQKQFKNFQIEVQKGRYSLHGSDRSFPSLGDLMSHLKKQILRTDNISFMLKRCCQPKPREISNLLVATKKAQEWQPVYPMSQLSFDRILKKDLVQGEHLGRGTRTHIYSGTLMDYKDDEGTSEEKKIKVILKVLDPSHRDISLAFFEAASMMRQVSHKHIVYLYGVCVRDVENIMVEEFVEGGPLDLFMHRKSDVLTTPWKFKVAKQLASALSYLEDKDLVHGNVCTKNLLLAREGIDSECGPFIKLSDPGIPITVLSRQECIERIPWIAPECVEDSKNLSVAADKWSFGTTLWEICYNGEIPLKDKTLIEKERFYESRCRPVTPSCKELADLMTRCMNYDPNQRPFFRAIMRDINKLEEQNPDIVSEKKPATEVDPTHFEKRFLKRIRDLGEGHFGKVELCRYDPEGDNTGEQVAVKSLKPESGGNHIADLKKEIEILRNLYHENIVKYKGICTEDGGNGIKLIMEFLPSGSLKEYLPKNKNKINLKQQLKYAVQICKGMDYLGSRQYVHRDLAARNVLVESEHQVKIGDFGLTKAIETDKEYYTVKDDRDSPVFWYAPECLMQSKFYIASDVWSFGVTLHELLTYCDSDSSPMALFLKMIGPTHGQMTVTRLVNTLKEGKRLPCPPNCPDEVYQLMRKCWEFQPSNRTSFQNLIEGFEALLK
UniProt P53671: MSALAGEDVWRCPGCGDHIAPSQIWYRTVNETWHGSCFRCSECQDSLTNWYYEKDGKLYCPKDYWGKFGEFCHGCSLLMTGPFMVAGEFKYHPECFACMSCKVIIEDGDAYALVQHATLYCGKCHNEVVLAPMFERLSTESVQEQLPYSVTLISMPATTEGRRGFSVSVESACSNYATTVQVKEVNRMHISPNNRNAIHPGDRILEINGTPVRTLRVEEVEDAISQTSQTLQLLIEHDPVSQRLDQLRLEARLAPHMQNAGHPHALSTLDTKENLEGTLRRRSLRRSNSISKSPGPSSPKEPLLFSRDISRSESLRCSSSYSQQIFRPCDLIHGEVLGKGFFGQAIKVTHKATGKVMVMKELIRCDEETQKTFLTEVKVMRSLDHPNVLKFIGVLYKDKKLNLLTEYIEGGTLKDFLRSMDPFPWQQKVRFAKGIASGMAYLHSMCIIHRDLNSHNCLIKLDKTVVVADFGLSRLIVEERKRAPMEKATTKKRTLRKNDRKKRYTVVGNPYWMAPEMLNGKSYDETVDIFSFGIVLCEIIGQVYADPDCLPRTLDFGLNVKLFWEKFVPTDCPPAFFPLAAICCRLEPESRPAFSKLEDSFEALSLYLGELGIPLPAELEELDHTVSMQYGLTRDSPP
UniProt Q8IWU2: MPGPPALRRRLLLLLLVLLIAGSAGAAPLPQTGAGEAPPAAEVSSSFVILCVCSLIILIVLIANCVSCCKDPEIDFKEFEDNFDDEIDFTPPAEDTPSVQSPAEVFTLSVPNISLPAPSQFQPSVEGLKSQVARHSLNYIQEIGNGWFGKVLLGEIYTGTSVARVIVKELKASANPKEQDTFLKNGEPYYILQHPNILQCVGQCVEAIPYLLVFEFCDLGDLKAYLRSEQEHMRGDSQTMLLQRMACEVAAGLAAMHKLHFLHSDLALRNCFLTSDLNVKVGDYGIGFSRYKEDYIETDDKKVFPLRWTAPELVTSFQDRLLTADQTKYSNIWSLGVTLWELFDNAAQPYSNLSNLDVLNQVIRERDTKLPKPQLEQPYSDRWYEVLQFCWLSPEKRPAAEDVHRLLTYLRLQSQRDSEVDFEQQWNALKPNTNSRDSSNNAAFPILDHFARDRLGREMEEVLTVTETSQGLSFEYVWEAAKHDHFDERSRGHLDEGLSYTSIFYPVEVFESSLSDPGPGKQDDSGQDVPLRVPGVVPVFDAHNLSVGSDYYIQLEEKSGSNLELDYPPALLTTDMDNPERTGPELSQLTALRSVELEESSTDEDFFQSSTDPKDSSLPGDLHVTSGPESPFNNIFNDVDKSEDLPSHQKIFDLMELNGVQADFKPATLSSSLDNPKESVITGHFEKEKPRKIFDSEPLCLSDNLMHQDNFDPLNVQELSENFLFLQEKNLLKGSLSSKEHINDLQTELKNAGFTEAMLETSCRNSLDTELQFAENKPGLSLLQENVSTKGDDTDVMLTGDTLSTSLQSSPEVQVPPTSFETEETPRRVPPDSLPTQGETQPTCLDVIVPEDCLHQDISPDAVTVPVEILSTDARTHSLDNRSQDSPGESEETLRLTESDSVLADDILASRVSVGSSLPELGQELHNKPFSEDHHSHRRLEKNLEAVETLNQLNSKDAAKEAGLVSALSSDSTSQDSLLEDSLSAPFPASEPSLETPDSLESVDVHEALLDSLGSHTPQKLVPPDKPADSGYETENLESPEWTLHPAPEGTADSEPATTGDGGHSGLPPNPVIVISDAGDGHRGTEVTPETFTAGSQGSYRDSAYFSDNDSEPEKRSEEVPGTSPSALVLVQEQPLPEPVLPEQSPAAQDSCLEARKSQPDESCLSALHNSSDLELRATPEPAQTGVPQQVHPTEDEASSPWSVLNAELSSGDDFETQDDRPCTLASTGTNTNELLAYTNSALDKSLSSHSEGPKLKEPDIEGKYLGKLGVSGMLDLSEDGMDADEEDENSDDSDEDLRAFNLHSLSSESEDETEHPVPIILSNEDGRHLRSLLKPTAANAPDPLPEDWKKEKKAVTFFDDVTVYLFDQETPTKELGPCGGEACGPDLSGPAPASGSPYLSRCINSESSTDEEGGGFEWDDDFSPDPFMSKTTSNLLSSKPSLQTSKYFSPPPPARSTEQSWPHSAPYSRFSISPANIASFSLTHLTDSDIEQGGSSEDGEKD

Legend:
Experiment in all cases: kinase-Nluc reporter destabilization hit call (1 = scored as downregulated) (binary); higher = compound decreases kinase abundance
Conditions in all cases: K562; 2-18 h
ERN1 = ERN1 (UniProt O75460)
FGFR1 = FGFR1 (UniProt P11362)
FGFR2 = FGFR2 (UniProt P21802)
FGFR3 = FGFR3 (UniProt P22607)
FGR = FGR (UniProt P09769)
FLT3 = FLT3 (UniProt P36888)
FYN = FYN (UniProt P06241)
GSK3A = GSK3A (UniProt P49840)
HER2 = HER2 (UniProt P04626)
INSRR = INSRR (UniProt P14616)
IRAK3 = IRAK3 (UniProt Q9Y616)
JAK1 = JAK1 (UniProt P23458)
LCK = LCK (UniProt P06239)
LIMK1 = LIMK1 (UniProt P53667)
LIMK2 = LIMK2 (UniProt P53671)
LMTK2 = LMTK2 (UniProt Q8IWU2)
LYN = LYN (UniProt P07948)
MAP2K1 = MAP2K1 (UniProt Q02750)
MAP2K2 = MAP2K2 (UniProt P36507)
MAP4K2 = MAP4K2 (UniProt Q12851)

| SMILES | kinase-Nluc reporter destabilization hit call (ERN1) | kinase-Nluc reporter destabilization hit call (FGFR1) | kinase-Nluc reporter destabilization hit call (FGFR2) | kinase-Nluc reporter destabilization hit call (FGFR3) | kinase-Nluc reporter destabilization hit call (FGR) | kinase-Nluc reporter destabilization hit call (FLT3) | kinase-Nluc reporter destabilization hit call (FYN) | kinase-Nluc reporter destabilization hit call (GSK3A) | kinase-Nluc reporter destabilization hit call (HER2) | kinase-Nluc reporter destabilization hit call (INSRR) | kinase-Nluc reporter destabilization hit call (IRAK3) | kinase-Nluc reporter destabilization hit call (JAK1) | kinase-Nluc reporter destabilization hit call (LCK) | kinase-Nluc reporter destabilization hit call (LIMK1) | kinase-Nluc reporter destabilization hit call (LIMK2) | kinase-Nluc reporter destabilization hit call (LMTK2) | kinase-Nluc reporter destabilization hit call (LYN) | kinase-Nluc reporter destabilization hit call (MAP2K1) | kinase-Nluc reporter destabilization hit call (MAP2K2) | kinase-Nluc reporter destabilization hit call (MAP4K2) |
| --- | --- | --- | --- | --- | --- | --- | --- | --- | --- | --- | --- | --- | --- | --- | --- | --- | --- | --- | --- | --- |
| Nc1ncnc2c1c(-c1cccc(OCc3ccccc3)c1)cn2C1CC(CN2CCCC2)C1 (stereo not given) (2.5 µM) | inactive: 0 | inactive: 0 | inactive: 0 | inactive: 0 | inactive: 0 | inactive: 0 | inactive: 0 | inactive: 0 | inactive: 0 | inactive: 0 | inactive: 0 | inactive: 0 | inactive: 0 | inactive: 0 | inactive: 0 | inactive: 0 | inactive: 0 | inactive: 0 | inactive: 0 | inactive: 0 |
| O=C1c2ccccc2-c2n[nH]c3cccc1c23 (10 µM) | inactive: 0 | inactive: 0 | inactive: 0 | inactive: 0 | inactive: 0 | inactive: 0 | inactive: 0 | inactive: 0 | inactive: 0 | inactive: 0 | inactive: 0 | inactive: 0 | inactive: 0 | inactive: 0 | inactive: 0 | inactive: 0 | inactive: 0 | inactive: 0 | inactive: 0 | inactive: 0 |
| O=c1c(-c2ccc(O)cc2)coc2cc(O)cc(O)c12 [Genistein] (10 µM) | inactive: 0 | inactive: 0 | inactive: 0 | inactive: 0 | inactive: 0 | inactive: 0 | inactive: 0 | inactive: 0 | inactive: 0 | inactive: 0 | inactive: 0 | inactive: 0 | inactive: 0 | inactive: 0 | inactive: 0 | inactive: 0 | inactive: 0 | inactive: 0 | inactive: 0 | inactive: 0 |
| CN(C)Cc1ccc(-c2cnn3c(-c4cccc(NC(=O)c5cccc(C(F)(F)F)c5)c4)ccnc23)cc1 (2.5 µM) | inactive: 0 | inactive: 0 | inactive: 0 | inactive: 0 | inactive: 0 | inactive: 0 | inactive: 0 | inactive: 0 | active: 1 | inactive: 0 | inactive: 0 | inactive: 0 | inactive: 0 | inactive: 0 | inactive: 0 | inactive: 0 | inactive: 0 | inactive: 0 | inactive: 0 | inactive: 0 |
| N#C/C(=C\c1ccc(O)c(O)c1)C(=O)NCCCc1ccccc1 (10 µM) | inactive: 0 | inactive: 0 | inactive: 0 | inactive: 0 | inactive: 0 | inactive: 0 | inactive: 0 | inactive: 0 | inactive: 0 | inactive: 0 | inactive: 0 | inactive: 0 | inactive: 0 | inactive: 0 | inactive: 0 | inactive: 0 | inactive: 0 | inactive: 0 | inactive: 0 | inactive: 0 |
| Cc1cccc(Cn2nc(C3CC3)c3c(NC(=O)c4cnc5cc(OCCN6CCN(C)CC6)ccn45)cccc32)n1 (10 µM) | inactive: 0 | inactive: 0 | inactive: 0 | inactive: 0 | inactive: 0 | inactive: 0 | inactive: 0 | inactive: 0 | inactive: 0 | inactive: 0 | inactive: 0 | inactive: 0 | inactive: 0 | inactive: 0 | inactive: 0 | inactive: 0 | inactive: 0 | inactive: 0 | inactive: 0 | inactive: 0 |
| COc1ccc(COc2ccc(Cc3cnc(N)nc3N)cc2OC)cc1 (10 µM) | inactive: 0 | inactive: 0 | inactive: 0 | inactive: 0 | inactive: 0 | inactive: 0 | inactive: 0 | inactive: 0 | inactive: 0 | inactive: 0 | inactive: 0 | inactive: 0 | inactive: 0 | inactive: 0 | inactive: 0 | inactive: 0 | inactive: 0 | inactive: 0 | inactive: 0 | inactive: 0 |
| COc1cc(F)cc([C@@H](CO)NC(=O)[C@@H](C)N2Cc3ccc(-c4nc(NC5CCOCC5)ncc4Cl)cc3C2=O)c1 [ERK1/2 inhibitor 2] (10 µM) | inactive: 0 | inactive: 0 | inactive: 0 | inactive: 0 | inactive: 0 | inactive: 0 | inactive: 0 | inactive: 0 | inactive: 0 | inactive: 0 | inactive: 0 | inactive: 0 | inactive: 0 | inactive: 0 | inactive: 0 | inactive: 0 | inactive: 0 | inactive: 0 | inactive: 0 | inactive: 0 |
| CNc1nc(-c2ccc3c(N)n[nH]c3c2)cc(N2C[C@@H](C(=O)NC3CCCCC3)CC[C@H]2C)n1 (10 µM) | inactive: 0 | inactive: 0 | inactive: 0 | inactive: 0 | inactive: 0 | inactive: 0 | inactive: 0 | inactive: 0 | inactive: 0 | inactive: 0 | inactive: 0 | inactive: 0 | inactive: 0 | inactive: 0 | inactive: 0 | inactive: 0 | inactive: 0 | inactive: 0 | inactive: 0 | inactive: 0 |
| Cc1c(NC(=O)c2cc3c(s2)CCCC3)cccc1-c1cn(C)c(=O)c(Nc2ccc([C@@H]3C(=O)N(C)CCN3C)cc2)n1 (10 µM) | inactive: 0 | inactive: 0 | inactive: 0 | inactive: 0 | inactive: 0 | inactive: 0 | inactive: 0 | inactive: 0 | inactive: 0 | inactive: 0 | inactive: 0 | inactive: 0 | inactive: 0 | inactive: 0 | inactive: 0 | inactive: 0 | inactive: 0 | inactive: 0 | inactive: 0 | inactive: 0 |
| CNC(=O)c1cccc(-c2ccc3c(N4CCOC[C@@H]4C)nc(N4CCOC[C@@H]4C)nc3n2)c1 [Vistusertib] (2.5 µM) | inactive: 0 | active: 1 | inactive: 0 | inactive: 0 | inactive: 0 | inactive: 0 | inactive: 0 | inactive: 0 | inactive: 0 | inactive: 0 | inactive: 0 | inactive: 0 | inactive: 0 | inactive: 0 | inactive: 0 | inactive: 0 | inactive: 0 | inactive: 0 | inactive: 0 | inactive: 0 |
| COc1ccc(NC(=O)N2CCN(c3nc(N)nc4c3cnn4C)[C@@H](C)C2)c(C)c1 (10 µM) | inactive: 0 | inactive: 0 | inactive: 0 | inactive: 0 | inactive: 0 | inactive: 0 | inactive: 0 | inactive: 0 | inactive: 0 | inactive: 0 | inactive: 0 | inactive: 0 | inactive: 0 | inactive: 0 | inactive: 0 | inactive: 0 | inactive: 0 | inactive: 0 | inactive: 0 | inactive: 0 |
| CNC(=O)c1cccc2cc(Oc3ccnc4cc(OCC5(N)CC5)c(OC)cc34)ccc12 [Lucitanib] (10 µM) | inactive: 0 | inactive: 0 | inactive: 0 | inactive: 0 | inactive: 0 | inactive: 0 | inactive: 0 | inactive: 0 | inactive: 0 | inactive: 0 | inactive: 0 | inactive: 0 | inactive: 0 | inactive: 0 | inactive: 0 | inactive: 0 | inactive: 0 | inactive: 0 | inactive: 0 | inactive: 0 |
| COc1cc2ncnc(Nc3cccc(Cl)c3F)c2cc1OC(=O)N1CCN(C)C[C@H]1C [Zorifertinib] (10 µM) | inactive: 0 | inactive: 0 | inactive: 0 | inactive: 0 | inactive: 0 | inactive: 0 | inactive: 0 | inactive: 0 | inactive: 0 | inactive: 0 | inactive: 0 | inactive: 0 | inactive: 0 | inactive: 0 | inactive: 0 | inactive: 0 | inactive: 0 | inactive: 0 | inactive: 0 | inactive: 0 |
| CCCS(=O)(=O)Nc1ccc(F)c(C(=O)c2c[nH]c3ncc(Cl)cc23)c1F (10 µM) | inactive: 0 | inactive: 0 | inactive: 0 | inactive: 0 | inactive: 0 | inactive: 0 | inactive: 0 | inactive: 0 | inactive: 0 | inactive: 0 | inactive: 0 | inactive: 0 | inactive: 0 | inactive: 0 | inactive: 0 | inactive: 0 | inactive: 0 | inactive: 0 | inactive: 0 | inactive: 0 |
| Cc1c(C(=O)N2CCOc3ccc(-c4ccc(N)nc4)cc3C2)ccc(S(C)(=O)=O)c1F (10 µM) | inactive: 0 | inactive: 0 | inactive: 0 | inactive: 0 | inactive: 0 | inactive: 0 | inactive: 0 | inactive: 0 | inactive: 0 | inactive: 0 | inactive: 0 | inactive: 0 | inactive: 0 | inactive: 0 | inactive: 0 | inactive: 0 | inactive: 0 | inactive: 0 | inactive: 0 | inactive: 0 |
| COc1c(Cl)cc2c([nH]c3cnccc32)c1NC(=O)c1cccnc1C (10 µM) | inactive: 0 | inactive: 0 | inactive: 0 | inactive: 0 | inactive: 0 | inactive: 0 | inactive: 0 | inactive: 0 | inactive: 0 | inactive: 0 | inactive: 0 | inactive: 0 | inactive: 0 | inactive: 0 | inactive: 0 | inactive: 0 | inactive: 0 | inactive: 0 | inactive: 0 | inactive: 0 |

2 records drawn at random from those above:

| SMILES | kinase-Nluc reporter destabilization hit call (ERN1) | kinase-Nluc reporter destabilization hit call (FGFR1) | kinase-Nluc reporter destabilization hit call (FGFR2) | kinase-Nluc reporter destabilization hit call (FGFR3) | kinase-Nluc reporter destabilization hit call (FGR) | kinase-Nluc reporter destabilization hit call (FLT3) | kinase-Nluc reporter destabilization hit call (FYN) | kinase-Nluc reporter destabilization hit call (GSK3A) | kinase-Nluc reporter destabilization hit call (HER2) | kinase-Nluc reporter destabilization hit call (INSRR) | kinase-Nluc reporter destabilization hit call (IRAK3) | kinase-Nluc reporter destabilization hit call (JAK1) | kinase-Nluc reporter destabilization hit call (LCK) | kinase-Nluc reporter destabilization hit call (LIMK1) | kinase-Nluc reporter destabilization hit call (LIMK2) | kinase-Nluc reporter destabilization hit call (LMTK2) | kinase-Nluc reporter destabilization hit call (LYN) | kinase-Nluc reporter destabilization hit call (MAP2K1) | kinase-Nluc reporter destabilization hit call (MAP2K2) | kinase-Nluc reporter destabilization hit call (MAP4K2) |
| --- | --- | --- | --- | --- | --- | --- | --- | --- | --- | --- | --- | --- | --- | --- | --- | --- | --- | --- | --- | --- |
| CNC(=O)c1cccc(-c2ccc3c(N4CCOC[C@@H]4C)nc(N4CCOC[C@@H]4C)nc3n2)c1 [Vistusertib] (2.5 µM) | inactive: 0 | active: 1 | inactive: 0 | inactive: 0 | inactive: 0 | inactive: 0 | inactive: 0 | inactive: 0 | inactive: 0 | inactive: 0 | inactive: 0 | inactive: 0 | inactive: 0 | inactive: 0 | inactive: 0 | inactive: 0 | inactive: 0 | inactive: 0 | inactive: 0 | inactive: 0 |
| Cc1cccc(Cn2nc(C3CC3)c3c(NC(=O)c4cnc5cc(OCCN6CCN(C)CC6)ccn45)cccc32)n1 (10 µM) | inactive: 0 | inactive: 0 | inactive: 0 | inactive: 0 | inactive: 0 | inactive: 0 | inactive: 0 | inactive: 0 | inactive: 0 | inactive: 0 | inactive: 0 | inactive: 0 | inactive: 0 | inactive: 0 | inactive: 0 | inactive: 0 | inactive: 0 | inactive: 0 | inactive: 0 | inactive: 0 |
